Experimental data published in PubChem BioAssay AID743238 (Broad Institute, 2013).
Values joined by “and” are separate entries in the source; they are usually repeats but may differ in a detail not shown here. Equal values may be shown once. Screen size: about 360,000 compounds; about 200 (0.056%) were called active. The shares of active, inactive and inconclusive entries below differ from those in the screen.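 Rule for the calls: active = mean normalized replicate activation at least 10% and every replicate at or above 10%; inconclusive = only one of the two criteria met; inactive = mean below 10% and not all replicates reach 10%.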

Assay: activators of inactive X chromosome reactivation, primary screen, imaging, XiGFP fibroblasts, GFP high-content imaging, set 2 (AID 743238);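 note: 0% = median of on-plate neutral control wells and 100% = ellipticine 6 µM median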
Conditions: XiGFP mouse fibroblasts, % GFP-positive cells imaging, 3 d; at 7.58 µM; active compounds read high; cells co-treated with 5-aza-dC sensitizer; scaled so ellipticine positive control = 100%
Procedure, shortened: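 Assay system: SV40-immortalized XiGFP fibroblast cells, line 68-5-11; buffer or medium: DMEM plus 5-aza-dC sensitizer; compound: one concentration, pinned; timing: compounds 3 days, fix/stain 15 min at room temperature; benchmarks: positive control ellipticine, 6 µM final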

Which activation does the source give for CC(C)CCN1C(=O)c2cccc3c(N)ccc(c23)C1=O here?
The activation was active: 98.9%.

For COc1cccc2cc(C(=O)N(Cc3cccs3)CC3CCCO3)c(=O)oc12 (stereo unspecified), which activation is on record?
Its activation is inconclusive: 14.9%.

With Cc1cccc(CS(=O)(=O)Cc2ccc(C(=O)NCc3cccs3)o2)c1 as the molecule, how does the activation read?
The activation was inconclusive: 35.5%.

For COc1cc(/C=C2\SC(=S)N(N3CCOCC3)C2=O)cc(OC)c1OC, which activation is on record?
Its activation is inconclusive: 17.7%.

With CCN(CC)c1ccc(/C=C/c2cc(-c3ccccc3)c3ccccc3n2)cc1 as the molecule, how does the activation read?
Its activation is active: 95.2%.

For CC(C)C#Cc1ccc([C@@H]2[C@@H](CO)N3C(=O)CN(C(=O)c4ccc5c(c4)OCO5)C[C@H]23)cc1, which activation is on record?
The activation was inconclusive: 11.4%.

Which activation does the source give for CO[C@H]1CN(C)C(=O)c2ccc(NC(=O)Cc3ccccc3)cc2OC[C@@H](C)N(C)C[C@H]1C here?
The activation was inconclusive: 43%.

Which activation does the source give for CNC[C@H]1OCCCC[C@H](C)Oc2ccc(NC(=O)CCC(F)(F)F)cc2C(=O)N([C@@H](C)CO)C[C@@H]1C here?
The activation was inactive: -1.17%.

Which activation does the source give for COc1cc(NC(=O)c2cc(C)on2)cc(C(=O)Nc2cccc(C(F)(F)F)c2)c1 here?
The activation was inactive: 0.006% and inactive: 0.318%.

Which activation does the source give for c1ccc2sc(N3CCCCC3)nc2c1 here?
The activation was inactive: -0.106%.

Which activation does the source give for Cc1cccc(OCC(=O)N(C)c2c(N)n(Cc3ccccc3)c(=O)[nH]c2=O)c1C here?
The activation was active: 140%.

For Cc1cccc(S(=O)(=O)N2C[C@@H]3N[C@H](C2)C3c2ccc(-c3ccncc3)cc2)c1 (stereo partly specified), which activation is on record?
Its activation is inactive: 0.0015% and inactive: 0.0395%.

With COc1ccc2nc(C)cc(NCc3ccc(F)cc3)c2c1 as the molecule, how does the activation read?
Its activation is active: 97.4%.

Which activation does the source give for CCCN(C)C[C@H]1OCCCC[C@H](C)Oc2ccc(NC(=O)C3CCCCC3)cc2C(=O)N([C@H](C)CO)C[C@H]1C here?
Its activation is inactive: 0.292%.

With Cc1cc(C)c2cc3c(N)c(C(=O)Nc4c(C)[nH]c(=O)[nH]c4=O)sc3nc2c1 as the molecule, how does the activation read?
Its activation is inconclusive: 10.2%.

Which activation does the source give for COc1ccc(C(=O)c2sc3nc(C)cc(-c4cccs4)c3c2N)cc1 here?
Its activation is inconclusive: 13.2%.

For C[C@@H]1CN([C@@H](C)CO)C(=O)c2cc(-c3ccccc3)cnc2O[C@H]1CN(C)C(=O)C1CCCCC1, which activation is on record?
The activation was inactive: -0.668%.

Which activation does the source give for CN(C)C(=O)c1ccc(-c2ccc([C@@H]3[C@@H](C#N)N(C(=O)C4CC4)[C@H]3CO)cc2)cc1 here?
Its activation is inactive: 0.153%.

Which activation does the source give for CC(=O)N1CCN(C(=O)c2cc(C)nc3ccccc23)CC1 here?
Its activation is inactive: 0%.

Which activation does the source give for O=C(C[C@H]1CC[C@H](NS(=O)(=O)c2ccc(F)cc2)[C@@H](CO)O1)NC1CCC1 here?
The activation was inactive: -0.415%.

For COc1cc(/C=C2\SC(=O)N(c3cccc(Cl)c3)C2=O)cc([N+](=O)[O-])c1O, which activation is on record?
Its activation is inactive: 0%.

With COCC(=O)N[C@H]1C=C[C@H](CC(=O)NCc2ccc(Cl)cc2)O[C@H]1CO as the molecule, how does the activation read?
Its activation is inactive: -0.236%.

Which activation does the source give for C=CC[C@@H](CC(=O)N(CCO)Cc1ccccc1)C(=O)NCCOC(=O)[C@@H](CC=C)Cc1ccc(F)cc1 here?
Its activation is inconclusive: 14%.

Which activation does the source give for COc1ccc(NS(=O)(=O)c2ccc(NC(C)=O)cc2)nn1 here?
The activation was inconclusive: 17.2%.

With CO[C@@H]1CN(C)C(=O)c2cc(NS(C)(=O)=O)ccc2OC[C@H](C)N(C(=O)C2CCCC2)C[C@H]1C as the molecule, how does the activation read?
The activation was inconclusive: 12.3%.

With Cc1ccc(S(=O)(=O)N2CCOCC2)cc1C(=O)OCC(=O)NC1CCS(=O)(=O)C1 (stereo unspecified) as the molecule, how does the activation read?
Its activation is inconclusive: 25.5%.

Which activation does the source give for CC(C)NC(=O)Nc1cccc2c1O[C@@H](CN(C)C)[C@@H](C)CN([C@@H](C)CO)C2=O here?
The activation was inactive: 0.028%.

For N#Cc1c(-c2ccccc2F)cc(C2CC2)nc1SCC(=O)c1cccs1, which activation is on record?
The activation was active: 60%.

Which activation does the source give for CCc1ccc(C(=O)NNc2ccc(S(N)(=O)=O)cc2)cc1 here?
Its activation is inconclusive: 20.5%.

With Cc1nc(NC(=O)C(Cl)Cl)sc1C(=O)N(C)C as the molecule, how does the activation read?
The activation was active: 11.7%.

For COc1ccc2c3c([nH]c2c1)[C@H](CO)N(C(=O)Nc1ccc(F)cc1)CC31CN(CC2CC2)C1, which activation is on record?
Its activation is inconclusive: 12.2%.

Which activation does the source give for Cc1ccc(-c2nc3ccc(Br)cn3c2Cc2ccccc2C(F)(F)F)cc1 here?
The activation was inconclusive: 21.8%.

With COc1cc(NS(=O)(=O)c2ccc3ccccc3c2)c2ncccc2c1 as the molecule, how does the activation read?
The activation was inconclusive: 21.9%.

Which activation does the source give for CC1CC(C)CN(C(=O)CSCC(=O)Nc2nc(-c3cccs3)cs2)C1 (stereo unspecified) here?
Its activation is inconclusive: 15.4%.

With CC[C@]12c3[nH]c4cc(CCC(=O)N(C)C)ccc4c3CCN1C(=O)[C@@H](CC(=O)NCCC1=CCCCC1)C[C@@H]2C(=O)N1CCN(C(=O)c2ccco2)CC1 as the molecule, how does the activation read?
Its activation is inconclusive: 15.3%.

For CCc1nc(C)cn1S(=O)(=O)c1ccc([N+](=O)[O-])cc1, which activation is on record?
Its activation is inconclusive: 13%.

With O=C(CCN1CCCCC1)NCC[C@@H]1CC[C@H](NC(=O)C2CCCCC2)[C@H](CO)O1 as the molecule, how does the activation read?
Its activation is inconclusive: 24.6%.

Which activation does the source give for CC(=O)Oc1ccc2c(=O)c(Oc3ccccc3)coc2c1OC(C)=O here?
Its activation is inactive: -0.028%.

For COc1ccc(-c2cc(C(=O)Nc3ccc(S(=O)(=O)Nc4ncccn4)cc3)c3ccccc3n2)cc1, which activation is on record?
Its activation is inactive: -0.0795%.

Which activation does the source give for Cc1cc(N/N=C/c2ccc([N+](=O)[O-])o2)nc2ccccc12 here?
The activation was active: 42.6%.

With O=C(N/N=C/c1cccc([N+](=O)[O-])c1)c1cc(-c2ccc3c4c(cccc24)CC3)n[nH]1 as the molecule, how does the activation read?
The activation was inactive: 0.22%.

With N#CC1(Nc2ccc3c4c(cccc24)CC3)CCCCC1 as the molecule, how does the activation read?
The activation was active: 40%.

Which activation does the source give for CCN1/C(=C/c2ccc3cc(C)cc(C)c3[n+]2CC)Sc2cc(C)ccc21 here?
Its activation is active: 110%.

For CCC1CN(S(=O)(=O)c2ccc3c(c2)NC(=O)CC(=O)N3)c2cc(Cl)ccc2O1 (stereo unspecified), which activation is on record?
Its activation is inactive: 0.24%.

With COc1ccc(NC(=O)Nc2cccc3c2O[C@@H](CN(C)Cc2ccc(C(F)(F)F)cc2)[C@@H](C)CN([C@@H](C)CO)C3=O)cc1 as the molecule, how does the activation read?
The activation was inactive: -0.5%.

With O=C(Nc1cccc(Cl)c1)Nc1nnc(-c2ccncc2)s1 as the molecule, how does the activation read?
The activation was inactive: -0.043%.

For C(CCCN1CCCCC1)CCN1CCCCC1, which activation is on record?
Its activation is inconclusive: 15.5%.

With COc1ccc(/C=C2\CCc3ccccc3C2=O)cc1CN1CCOCC1 as the molecule, how does the activation read?
Its activation is inconclusive: 14.7%.

Which activation does the source give for Oc1c(C(c2ccccc2Cl)N2CCCC2)ccc2cccnc12 (stereo unspecified) here?
Its activation is inconclusive: 13.8%.

With C/C=C/c1ccc(C2[C@H]3CNC[C@@H]2N3Cc2cc(-c3ccccc3)on2)cc1 (stereo partly specified) as the molecule, how does the activation read?
Its activation is inconclusive: 12%.

For CC(=O)NC(c1ccc(Cl)cc1)c1c(O)ccc2ccc(O)cc12 (stereo unspecified), which activation is on record?
Its activation is inconclusive: 22.3%.

Which activation does the source give for c1ccc2nc(-c3nccs3)ccc2c1 here?
Its activation is inactive: -0.052%.

For CC(=NNC(=S)Nc1cccc(Cl)c1)c1ccccn1, which activation is on record?
Its activation is inconclusive: 16%.

Which activation does the source give for O=C1C=CC(=O)C(CNc2ccc(C(=O)OCc3ccccc3)cc2)=C1 here?
The activation was inconclusive: 11.6%.

Which activation does the source give for COC(=O)CCN1CCC(c2cc(-c3cccc(C(F)(F)F)c3)n[nH]2)CC1 here?
The activation was inconclusive: 51.7%.

For NC(=S)Nc1ncc(C(F)(F)F)cc1Cl, which activation is on record?
The activation was inactive: -0.0235%.

With CCOC(=O)c1ccccc1NC(=O)COC(=O)C1CCN(S(=O)(=O)c2ccccc2C(=O)OC)CC1 as the molecule, how does the activation read?
Its activation is inconclusive: 13.2%.

Which activation does the source give for Nc1ccccc1Nc1cc(-c2ccccc2)[nH]n1 here?
The activation was inconclusive: 13.9%.

Which activation does the source give for CCCn1c(=S)[nH]c2cc(Cl)ccc21 here?
Its activation is inactive: -0.0465%.

With COc1cc2c3nnc(-c4ccc(F)cc4)c-3cn(Cc3ccccc3)c2cc1OC as the molecule, how does the activation read?
The activation was active: 90.7%.

With COc1cccc(NC(=O)CN2C(=O)NC3(CCc4ccccc43)C2=O)c1 (stereo unspecified) as the molecule, how does the activation read?
Its activation is inactive: 0.132%.

Which activation does the source give for CCOC(=O)c1c(C)[nH]c(C)c1S(=O)(=O)NCCN1CCN(c2ccccc2F)CC1 here?
Its activation is inactive: 0.245%.

With CC[n+]1c(C=C2C=C(C)OC(C)=C2)sc2ccccc21 as the molecule, how does the activation read?
The activation was active: 56.6%.

Which activation does the source give for COc1ccc(N2C(=O)C3CCCN3C2c2cccc(OC)c2)cc1 (stereo unspecified) here?
Its activation is active: 12.3%.

For O=[N+]([O-])c1ccc(N/N=C/c2sc(N3CCOCC3)nc2-c2ccccc2)c(S(=O)(=O)Nc2ccc(Cl)cc2)c1, which activation is on record?
The activation was active: 86.7%.

For Cc1nnc(-c2ccc(N3CCCCCC3)c([N+](=O)[O-])c2)o1, which activation is on record?
The activation was inconclusive: 13.8%.

Which activation does the source give for Cc1ccc2nc(-c3ccco3)c(Cc3ccccc3)n2c1 here?
Its activation is inactive: 0.0375%.

For COc1ccc(CN(C)C[C@H]2OCCCC[C@@H](C)Oc3ccc(NC(=O)Nc4ccc(F)cc4)cc3C(=O)N([C@@H](C)CO)C[C@H]2C)cc1, which activation is on record?
The activation was inconclusive: 15.8%.

For C/C=C/Cn1c(SCCCc2ccccc2)nc2c1c(=O)[nH]c(=O)n2C, which activation is on record?
The activation was inconclusive: 46.2%.

With CCOC(=O)c1sc(Nc2ccc(Br)cc2)nc1C as the molecule, how does the activation read?
The activation was inconclusive: 17.5%.

For Cc1c(Nc2cc(Cl)c3nonc3c2[N+](=O)[O-])c(=O)n(-c2ccccc2)n1C, which activation is on record?
The activation was active: 19.1%.

For ClC1CCCCC1n1nnc2ccccc21 (stereo unspecified), which activation is on record?
The activation was inconclusive: 11.9%.

Which activation does the source give for COC1=CC(=O)c2nc(Cl)ccc2C1=O here?
Its activation is inconclusive: 12.1%.

With O=[N+]([O-])c1ccccc1-c1ccc(C(=S)N2CCN(c3ccccc3)CC2)o1 as the molecule, how does the activation read?
The activation was inconclusive: 48.2%.

For COc1cc(C(=O)NC(=S)Nc2cccc3nc(C)ccc23)cc(OC)c1OC, which activation is on record?
Its activation is inconclusive: 22%.

For C[C@H]1CN([C@@H](C)CO)S(=O)(=O)c2ccc(Br)cc2O[C@H]1CN(C)C(=O)c1cccnc1, which activation is on record?
Its activation is inconclusive: 20.8%.

With CSc1ccc(CNCC2CCCO2)cc1 (stereo unspecified) as the molecule, how does the activation read?
The activation was inconclusive: 43.6%.

With Cc1ccc(S(=O)(=O)Nc2ccc3c(c2)C(=O)N([C@@H](C)CO)C[C@H](C)[C@@H](CN(C)C(=O)Nc2ccc4c(c2)OCO4)O3)cc1 as the molecule, how does the activation read?
Its activation is inactive: 0.072%.

With CN1CCN(S(=O)(=O)c2ccc(C#N)cc2)C(c2ccccc2)C1 (stereo unspecified) as the molecule, how does the activation read?
The activation was inconclusive: 10.7%.

For Cc1nc2ccc(NC(=S)NCCCO)cc2nc1C, which activation is on record?
Its activation is inactive: 0%.

Which activation does the source give for CCC1Oc2ccc(C)cc2N(CC(=O)N2CCCC2)C1=O (stereo unspecified) here?
The activation was inconclusive: 12.7%.
